In paper PMC10014109:
Results are given in words; binding and its absence hold for the method and conditions named. Binding seen in cells or lysates may run through a third protein. Some binding calls cover weakened binding; strength is not graded here. For some of these results: Tags and fused reporters may be left off the sequences shown.

T1: Flag-tagged SLAMF7 (signaling lymphocyte activation molecular family 7), full-length (mouse) (UniProt Q8BHK6)
T1 sequence: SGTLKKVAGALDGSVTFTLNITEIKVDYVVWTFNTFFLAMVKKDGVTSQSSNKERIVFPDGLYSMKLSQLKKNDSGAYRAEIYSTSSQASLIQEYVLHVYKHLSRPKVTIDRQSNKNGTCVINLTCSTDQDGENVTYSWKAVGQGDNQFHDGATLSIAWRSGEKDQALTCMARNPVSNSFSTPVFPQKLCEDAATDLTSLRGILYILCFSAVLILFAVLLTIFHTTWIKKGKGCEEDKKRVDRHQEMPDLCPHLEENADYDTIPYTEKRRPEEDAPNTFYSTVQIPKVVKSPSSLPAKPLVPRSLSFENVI

T2: SLAMF7, endogenous (mouse (endogenous in RAW264.7)) (UniProt Q8BHK6)
T2 sequence: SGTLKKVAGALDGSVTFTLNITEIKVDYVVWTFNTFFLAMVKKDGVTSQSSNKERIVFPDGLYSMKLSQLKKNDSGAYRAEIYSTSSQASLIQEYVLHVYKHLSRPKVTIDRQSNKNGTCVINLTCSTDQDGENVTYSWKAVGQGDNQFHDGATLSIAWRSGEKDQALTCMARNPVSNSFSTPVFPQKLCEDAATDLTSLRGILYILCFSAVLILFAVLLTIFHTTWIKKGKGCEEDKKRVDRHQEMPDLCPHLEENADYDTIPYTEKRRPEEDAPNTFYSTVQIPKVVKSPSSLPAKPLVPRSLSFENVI


Columns and labels:
[1] = biological target: T1, Flag-tagged SLAMF7 (signaling lymphocyte activation molecular family 7), full-length (mouse); experiment: co-IP; HEK 293T cells cotransfected with tagged murine constructs; IP from lysate with anti-Flag or anti-HA antibodies, immunoblot
[2] = biological target: T2, SLAMF7, endogenous (mouse (endogenous in RAW264.7)); experiment: co-IP; endogenous proteins; lysate of RAW264.7 cells stimulated with LPS; IP with IgG or anti-SLAMF7, immunoblot with anti-TRAF6 or anti-SHIP1

Binder	binding [1]	binding [2]
HA-tagged SHIP1 (Src homology 2-containing inositol-5'-phosphatase 1), full-length (enzyme, UniProt Q9ES52 1-1191) MPAMVPGWNHGNITRSKAEELLSRAGKDGSFLVRASESIPRAYALCVLFRNCVYTYRILPNEDDKFTVQASEGVPMRFFTKLDQLIDFYKKENMGLVTHLQYPVPLEEEDAIDEAEEDTVESVMSPPELPPRNIPMSAGPSEAKDLPLATENPRAPEVTRLSLSETLFQRLQSMDTSGLPEEHLKAIQDYLSTQLLLDSDFLKTGSSNLPHLKKLMSLLCKELHGEVIRTLPSLESLQRLFDQQLSPGLRPRPQVPGEASPITMVAKLSQLTSLLSSIEDKVKSLLHEGSESTNRRSLIPPVTFEVKSESLGIPQKMHLKVDVESGKLIVKKSKDGSEDKFYSHKKILQLIKSQKFLNKLVILVETEKEKILRKEYVFADSKKREGFCQLLQQMKNKHSEQPEPDMITIFIGTWNMGNAPPPKKITSWFLSKGQGKTRDDSADYIPHDIYVIGTQEDPLGEKEWLELLRHSLQEVTSMTFKTVAIHTLWNIRIVVLAKPEHENRISHICTDNVKTGIANTLGNKGAVGVSFMFNGTSLGFVNSHLTSGSEKKLRRNQNYMNILRFLALGDKKLSPFNITHRFTHLFWLGDLNYRVELPTWEAEAIIQKIKQQQYSDLLAHDQLLLERKDQKVFLHFEEEEITFAPTYRFERLTRDKYAYTKQKATGMKYNLPSWCDRVLWKSYPLVHVVCQSYGSTSDIMTSDHSPVFATFEAGVTSQFVSKNGPGTVDSQGQIEFLACYATLKTKSQTKFYLEFHSSCLESFVKSQEGENEEGSEGELVVRFGETLPKLKPIISDPEYLLDQHILISIKSSDSDESYGEGCIALRLETTEAQHPIYTPLTHHGEMTGHFRGEIKLQTSQGKMREKLYDFVKTERDESSGMKCLKNLTSHDPMRQWEPSGRVPACGVSSLNEMINPNYIGMGPFGQPLHGKSTLSPDQQLTAWSYDQLPKDSSLGPGRGEGPPTPPSQPPLSPKKFSSSTANRGPCPRVQEARPGDLGKVEALLQEDLLLTKPEMFENPLYGSVSSFPKLVPRKEQESPKMLRKEPPPCPDPGISSPSIVLPKAQEVESVKGTSKQAPVPVLGPTPRIRSFTCSSSAEGRMTSGDKSQGKPKASASSQAPVPVKRPVKPSRSEMSQQTTPIPAPRPPLPVKSPAVLQLQHSKGRDYRDNTELPHHGKHRQEEGLLGRTAMQ	binds	
TRAF6, endogenous (protein, UniProt P70196 1-530) MSLLNCENSCGSSQSSSDCCAAMAASCSAAVKDDSVSGSASTGNLSSSFMEEIQGYDVEFDPPLESKYECPICLMALREAVQTPCGHRFCKACIIKSIRDAGHKCPVDNEILLENQLFPDNFAKREILSLTVKCPNKGCLQKMELRHLEDHQVHCEFALVNCPQCQRPFQKCQVNTHIIEDCPRRQVSCVNCAVSMAYEEKEIHDQSCPLANIICEYCGTILIREQMPNHYDLDCPTAPIPCTFSVFGCHEKMQRNHLARHLQENTQLHMRLLAQAVHNVNLALRPCDAASPSRGCRPEDPNYEETIKQLESRLVRQDHQIRELTAKMETQSMYVGELKRTIRTLEDKVAEMEAQQCNGIYIWKIGNFGMHLKSQEEERPVVIHSPGFYTGRPGYKLCMRLHLQLPTAQRCANYISLFVHTMQGEYDSHLPWPFQGTIRLTILDQSEALIRQNHEEVMDAKPELLAFQRPTIPRNPKGFGYVTFMHLEALRQGTFIKDDTLLVRCEVSTRFDMGGLRKEGFQPRSTDAGV		binds
SHIP1, endogenous (enzyme, UniProt Q9ES52 1-1191) MPAMVPGWNHGNITRSKAEELLSRAGKDGSFLVRASESIPRAYALCVLFRNCVYTYRILPNEDDKFTVQASEGVPMRFFTKLDQLIDFYKKENMGLVTHLQYPVPLEEEDAIDEAEEDTVESVMSPPELPPRNIPMSAGPSEAKDLPLATENPRAPEVTRLSLSETLFQRLQSMDTSGLPEEHLKAIQDYLSTQLLLDSDFLKTGSSNLPHLKKLMSLLCKELHGEVIRTLPSLESLQRLFDQQLSPGLRPRPQVPGEASPITMVAKLSQLTSLLSSIEDKVKSLLHEGSESTNRRSLIPPVTFEVKSESLGIPQKMHLKVDVESGKLIVKKSKDGSEDKFYSHKKILQLIKSQKFLNKLVILVETEKEKILRKEYVFADSKKREGFCQLLQQMKNKHSEQPEPDMITIFIGTWNMGNAPPPKKITSWFLSKGQGKTRDDSADYIPHDIYVIGTQEDPLGEKEWLELLRHSLQEVTSMTFKTVAIHTLWNIRIVVLAKPEHENRISHICTDNVKTGIANTLGNKGAVGVSFMFNGTSLGFVNSHLTSGSEKKLRRNQNYMNILRFLALGDKKLSPFNITHRFTHLFWLGDLNYRVELPTWEAEAIIQKIKQQQYSDLLAHDQLLLERKDQKVFLHFEEEEITFAPTYRFERLTRDKYAYTKQKATGMKYNLPSWCDRVLWKSYPLVHVVCQSYGSTSDIMTSDHSPVFATFEAGVTSQFVSKNGPGTVDSQGQIEFLACYATLKTKSQTKFYLEFHSSCLESFVKSQEGENEEGSEGELVVRFGETLPKLKPIISDPEYLLDQHILISIKSSDSDESYGEGCIALRLETTEAQHPIYTPLTHHGEMTGHFRGEIKLQTSQGKMREKLYDFVKTERDESSGMKCLKNLTSHDPMRQWEPSGRVPACGVSSLNEMINPNYIGMGPFGQPLHGKSTLSPDQQLTAWSYDQLPKDSSLGPGRGEGPPTPPSQPPLSPKKFSSSTANRGPCPRVQEARPGDLGKVEALLQEDLLLTKPEMFENPLYGSVSSFPKLVPRKEQESPKMLRKEPPPCPDPGISSPSIVLPKAQEVESVKGTSKQAPVPVLGPTPRIRSFTCSSSAEGRMTSGDKSQGKPKASASSQAPVPVKRPVKPSRSEMSQQTTPIPAPRPPLPVKSPAVLQLQHSKGRDYRDNTELPHHGKHRQEEGLLGRTAMQ		binds
HA-tagged TRAF6 (TNF receptor-associated factor 6) (protein, UniProt P70196 1-530) MSLLNCENSCGSSQSSSDCCAAMAASCSAAVKDDSVSGSASTGNLSSSFMEEIQGYDVEFDPPLESKYECPICLMALREAVQTPCGHRFCKACIIKSIRDAGHKCPVDNEILLENQLFPDNFAKREILSLTVKCPNKGCLQKMELRHLEDHQVHCEFALVNCPQCQRPFQKCQVNTHIIEDCPRRQVSCVNCAVSMAYEEKEIHDQSCPLANIICEYCGTILIREQMPNHYDLDCPTAPIPCTFSVFGCHEKMQRNHLARHLQENTQLHMRLLAQAVHNVNLALRPCDAASPSRGCRPEDPNYEETIKQLESRLVRQDHQIRELTAKMETQSMYVGELKRTIRTLEDKVAEMEAQQCNGIYIWKIGNFGMHLKSQEEERPVVIHSPGFYTGRPGYKLCMRLHLQLPTAQRCANYISLFVHTMQGEYDSHLPWPFQGTIRLTILDQSEALIRQNHEEVMDAKPELLAFQRPTIPRNPKGFGYVTFMHLEALRQGTFIKDDTLLVRCEVSTRFDMGGLRKEGFQPRSTDAGV	binds	
